From the supplement of paper PMC7666118
The other results are listed elsewhere or left out.

By UniProt entry, the sequences of proteins in these tests, tags left out. Where a name states a change or a piece, a line headed by the entry shows the natural chain unless it says otherwise.
UniProt Q9UBV8: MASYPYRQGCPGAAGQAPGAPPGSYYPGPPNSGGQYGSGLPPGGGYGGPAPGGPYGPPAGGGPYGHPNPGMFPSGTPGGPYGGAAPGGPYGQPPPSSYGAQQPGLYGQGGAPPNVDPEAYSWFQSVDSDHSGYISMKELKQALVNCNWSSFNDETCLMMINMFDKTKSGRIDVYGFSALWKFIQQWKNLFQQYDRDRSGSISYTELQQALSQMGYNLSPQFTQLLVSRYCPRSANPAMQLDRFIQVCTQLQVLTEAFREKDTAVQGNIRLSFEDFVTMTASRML
UniProt O00330, whole entry: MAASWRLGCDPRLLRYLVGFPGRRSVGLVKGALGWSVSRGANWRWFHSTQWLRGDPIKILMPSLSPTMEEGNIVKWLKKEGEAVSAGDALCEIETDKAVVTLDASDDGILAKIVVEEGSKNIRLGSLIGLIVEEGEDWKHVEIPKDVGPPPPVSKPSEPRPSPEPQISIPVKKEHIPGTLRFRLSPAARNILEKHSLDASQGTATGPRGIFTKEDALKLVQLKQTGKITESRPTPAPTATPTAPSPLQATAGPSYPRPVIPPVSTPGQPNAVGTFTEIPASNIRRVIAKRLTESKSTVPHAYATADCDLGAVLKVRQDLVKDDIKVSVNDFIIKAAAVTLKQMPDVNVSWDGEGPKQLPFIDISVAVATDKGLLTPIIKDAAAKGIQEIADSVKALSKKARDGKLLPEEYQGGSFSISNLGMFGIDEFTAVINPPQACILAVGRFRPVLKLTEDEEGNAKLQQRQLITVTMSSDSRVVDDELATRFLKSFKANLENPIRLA
UniProt Q96FW1, whole entry: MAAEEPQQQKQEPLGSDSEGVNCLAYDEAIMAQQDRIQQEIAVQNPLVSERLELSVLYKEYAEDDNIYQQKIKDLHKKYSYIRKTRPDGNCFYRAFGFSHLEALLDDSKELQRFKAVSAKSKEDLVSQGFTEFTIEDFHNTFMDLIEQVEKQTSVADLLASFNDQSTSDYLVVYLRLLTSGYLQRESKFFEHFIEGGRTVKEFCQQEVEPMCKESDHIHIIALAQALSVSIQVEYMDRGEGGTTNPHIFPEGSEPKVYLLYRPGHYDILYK
UniProt Q6L8Q7: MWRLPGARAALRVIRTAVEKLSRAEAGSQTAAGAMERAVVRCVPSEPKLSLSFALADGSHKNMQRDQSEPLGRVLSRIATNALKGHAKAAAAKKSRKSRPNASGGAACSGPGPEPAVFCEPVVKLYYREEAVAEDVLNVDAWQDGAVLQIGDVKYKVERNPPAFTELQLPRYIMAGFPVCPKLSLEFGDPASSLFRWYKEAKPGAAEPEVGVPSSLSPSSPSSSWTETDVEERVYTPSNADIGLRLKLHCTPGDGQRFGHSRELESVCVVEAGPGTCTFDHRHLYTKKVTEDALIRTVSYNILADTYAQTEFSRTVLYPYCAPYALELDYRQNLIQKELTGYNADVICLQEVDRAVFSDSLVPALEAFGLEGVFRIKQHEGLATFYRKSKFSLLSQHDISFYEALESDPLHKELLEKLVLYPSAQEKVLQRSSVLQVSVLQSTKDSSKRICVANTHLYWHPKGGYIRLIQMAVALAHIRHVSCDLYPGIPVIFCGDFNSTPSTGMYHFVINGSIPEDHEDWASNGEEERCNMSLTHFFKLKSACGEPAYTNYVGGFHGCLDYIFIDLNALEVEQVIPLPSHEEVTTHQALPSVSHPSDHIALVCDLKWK
UniProt Q8NB37: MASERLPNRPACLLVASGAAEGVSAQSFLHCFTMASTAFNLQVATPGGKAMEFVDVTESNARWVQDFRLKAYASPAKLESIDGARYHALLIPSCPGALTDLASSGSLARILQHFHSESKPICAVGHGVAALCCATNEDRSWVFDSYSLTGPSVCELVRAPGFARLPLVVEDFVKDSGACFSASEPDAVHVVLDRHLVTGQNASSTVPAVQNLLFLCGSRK
UniProt Q86U86, whole entry: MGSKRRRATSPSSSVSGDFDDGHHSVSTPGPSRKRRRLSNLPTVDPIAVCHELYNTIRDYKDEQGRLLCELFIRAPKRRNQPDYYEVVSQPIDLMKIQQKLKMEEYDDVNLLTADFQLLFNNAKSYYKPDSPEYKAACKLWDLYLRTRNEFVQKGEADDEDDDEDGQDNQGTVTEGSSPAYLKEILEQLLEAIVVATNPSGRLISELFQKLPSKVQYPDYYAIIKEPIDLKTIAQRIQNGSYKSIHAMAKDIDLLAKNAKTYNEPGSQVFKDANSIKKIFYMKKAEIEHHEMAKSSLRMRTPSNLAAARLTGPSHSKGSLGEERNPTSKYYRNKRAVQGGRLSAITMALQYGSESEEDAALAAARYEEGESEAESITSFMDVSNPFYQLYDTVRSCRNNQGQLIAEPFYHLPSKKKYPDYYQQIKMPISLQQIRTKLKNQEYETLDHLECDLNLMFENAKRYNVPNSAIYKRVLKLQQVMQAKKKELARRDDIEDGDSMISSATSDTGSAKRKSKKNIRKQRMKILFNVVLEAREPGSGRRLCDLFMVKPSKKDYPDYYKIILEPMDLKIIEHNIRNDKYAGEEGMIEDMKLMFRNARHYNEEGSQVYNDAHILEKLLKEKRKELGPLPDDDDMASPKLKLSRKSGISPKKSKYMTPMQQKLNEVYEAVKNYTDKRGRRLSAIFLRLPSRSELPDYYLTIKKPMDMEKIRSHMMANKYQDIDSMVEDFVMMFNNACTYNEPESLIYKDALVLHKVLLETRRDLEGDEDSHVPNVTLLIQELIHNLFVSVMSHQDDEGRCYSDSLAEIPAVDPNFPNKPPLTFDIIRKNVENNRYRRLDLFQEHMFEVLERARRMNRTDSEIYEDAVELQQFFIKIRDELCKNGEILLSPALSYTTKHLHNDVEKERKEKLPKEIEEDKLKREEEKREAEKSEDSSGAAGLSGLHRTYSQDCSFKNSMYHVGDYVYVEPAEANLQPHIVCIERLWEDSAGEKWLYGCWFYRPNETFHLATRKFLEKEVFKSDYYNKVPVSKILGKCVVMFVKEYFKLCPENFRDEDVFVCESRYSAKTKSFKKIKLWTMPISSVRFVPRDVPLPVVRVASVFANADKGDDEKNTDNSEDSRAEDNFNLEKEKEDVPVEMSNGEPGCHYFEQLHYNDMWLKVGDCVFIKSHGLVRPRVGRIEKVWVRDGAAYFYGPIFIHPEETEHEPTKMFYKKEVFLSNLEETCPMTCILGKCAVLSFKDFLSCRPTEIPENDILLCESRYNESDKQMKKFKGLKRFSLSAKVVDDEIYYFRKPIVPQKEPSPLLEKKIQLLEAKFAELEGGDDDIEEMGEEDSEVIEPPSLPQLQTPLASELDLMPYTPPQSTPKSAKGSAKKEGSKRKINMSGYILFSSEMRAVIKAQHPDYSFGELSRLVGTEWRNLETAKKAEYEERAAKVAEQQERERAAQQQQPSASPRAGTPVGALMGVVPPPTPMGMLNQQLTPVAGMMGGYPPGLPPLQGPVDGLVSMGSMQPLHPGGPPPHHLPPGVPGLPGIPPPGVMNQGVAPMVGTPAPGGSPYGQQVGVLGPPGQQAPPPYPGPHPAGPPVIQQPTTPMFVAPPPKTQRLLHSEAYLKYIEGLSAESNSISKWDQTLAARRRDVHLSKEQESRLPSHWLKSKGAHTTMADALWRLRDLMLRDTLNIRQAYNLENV
UniProt Q6PK18: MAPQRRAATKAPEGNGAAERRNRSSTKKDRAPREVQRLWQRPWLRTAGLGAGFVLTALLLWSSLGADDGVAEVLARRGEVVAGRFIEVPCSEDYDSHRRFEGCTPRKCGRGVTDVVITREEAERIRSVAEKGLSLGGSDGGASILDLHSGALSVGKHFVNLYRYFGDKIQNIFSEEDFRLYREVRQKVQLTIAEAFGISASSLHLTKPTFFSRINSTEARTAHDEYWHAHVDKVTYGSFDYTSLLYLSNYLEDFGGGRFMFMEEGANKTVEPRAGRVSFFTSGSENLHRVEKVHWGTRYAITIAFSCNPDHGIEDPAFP
UniProt Q86TG7: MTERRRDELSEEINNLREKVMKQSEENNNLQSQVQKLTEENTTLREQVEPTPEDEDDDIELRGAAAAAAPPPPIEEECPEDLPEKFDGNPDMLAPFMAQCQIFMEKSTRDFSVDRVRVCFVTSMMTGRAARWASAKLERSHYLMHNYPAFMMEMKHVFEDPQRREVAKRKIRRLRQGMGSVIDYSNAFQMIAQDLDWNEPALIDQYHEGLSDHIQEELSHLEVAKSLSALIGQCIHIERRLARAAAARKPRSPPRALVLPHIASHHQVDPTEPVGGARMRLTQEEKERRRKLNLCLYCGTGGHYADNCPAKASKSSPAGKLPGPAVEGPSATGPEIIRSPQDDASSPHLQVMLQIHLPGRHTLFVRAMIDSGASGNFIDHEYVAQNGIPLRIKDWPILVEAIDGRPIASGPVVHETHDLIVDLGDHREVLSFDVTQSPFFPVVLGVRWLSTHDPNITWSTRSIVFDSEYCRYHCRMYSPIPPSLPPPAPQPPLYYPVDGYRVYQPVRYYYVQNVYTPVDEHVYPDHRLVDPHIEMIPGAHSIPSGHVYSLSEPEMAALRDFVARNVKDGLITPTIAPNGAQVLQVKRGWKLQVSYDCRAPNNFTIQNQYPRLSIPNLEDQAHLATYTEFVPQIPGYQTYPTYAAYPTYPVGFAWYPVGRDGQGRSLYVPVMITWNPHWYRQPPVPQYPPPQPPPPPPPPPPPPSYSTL
UniProt Q9Y5Y5: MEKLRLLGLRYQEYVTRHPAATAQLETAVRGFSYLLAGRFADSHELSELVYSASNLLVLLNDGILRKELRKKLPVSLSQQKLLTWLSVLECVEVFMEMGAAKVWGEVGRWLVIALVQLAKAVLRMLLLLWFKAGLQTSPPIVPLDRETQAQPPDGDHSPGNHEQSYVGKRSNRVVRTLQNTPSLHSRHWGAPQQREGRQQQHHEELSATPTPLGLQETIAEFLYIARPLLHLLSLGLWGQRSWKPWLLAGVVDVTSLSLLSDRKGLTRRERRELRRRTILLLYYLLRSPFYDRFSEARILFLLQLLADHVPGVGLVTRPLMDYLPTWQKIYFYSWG
UniProt O15212, whole entry: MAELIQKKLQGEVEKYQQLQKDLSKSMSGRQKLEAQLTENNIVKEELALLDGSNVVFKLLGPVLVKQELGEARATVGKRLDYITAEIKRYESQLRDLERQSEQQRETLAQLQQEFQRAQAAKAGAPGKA
UniProt P11177, whole entry: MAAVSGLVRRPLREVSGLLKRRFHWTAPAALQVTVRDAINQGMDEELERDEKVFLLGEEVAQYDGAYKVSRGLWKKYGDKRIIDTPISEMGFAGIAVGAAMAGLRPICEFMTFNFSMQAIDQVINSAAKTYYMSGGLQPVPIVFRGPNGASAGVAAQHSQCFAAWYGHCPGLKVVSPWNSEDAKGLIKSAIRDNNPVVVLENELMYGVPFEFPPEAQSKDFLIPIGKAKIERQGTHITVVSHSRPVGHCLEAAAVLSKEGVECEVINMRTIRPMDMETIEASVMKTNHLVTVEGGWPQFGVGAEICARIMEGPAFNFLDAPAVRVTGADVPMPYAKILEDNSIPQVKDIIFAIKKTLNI
UniProt P22061: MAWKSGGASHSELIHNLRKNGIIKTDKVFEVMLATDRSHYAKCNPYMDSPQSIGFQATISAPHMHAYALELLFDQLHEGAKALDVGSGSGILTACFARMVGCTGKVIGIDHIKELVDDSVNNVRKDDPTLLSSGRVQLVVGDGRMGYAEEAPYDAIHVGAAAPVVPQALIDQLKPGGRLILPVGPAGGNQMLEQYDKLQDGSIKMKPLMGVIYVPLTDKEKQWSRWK
UniProt Q9NVE7: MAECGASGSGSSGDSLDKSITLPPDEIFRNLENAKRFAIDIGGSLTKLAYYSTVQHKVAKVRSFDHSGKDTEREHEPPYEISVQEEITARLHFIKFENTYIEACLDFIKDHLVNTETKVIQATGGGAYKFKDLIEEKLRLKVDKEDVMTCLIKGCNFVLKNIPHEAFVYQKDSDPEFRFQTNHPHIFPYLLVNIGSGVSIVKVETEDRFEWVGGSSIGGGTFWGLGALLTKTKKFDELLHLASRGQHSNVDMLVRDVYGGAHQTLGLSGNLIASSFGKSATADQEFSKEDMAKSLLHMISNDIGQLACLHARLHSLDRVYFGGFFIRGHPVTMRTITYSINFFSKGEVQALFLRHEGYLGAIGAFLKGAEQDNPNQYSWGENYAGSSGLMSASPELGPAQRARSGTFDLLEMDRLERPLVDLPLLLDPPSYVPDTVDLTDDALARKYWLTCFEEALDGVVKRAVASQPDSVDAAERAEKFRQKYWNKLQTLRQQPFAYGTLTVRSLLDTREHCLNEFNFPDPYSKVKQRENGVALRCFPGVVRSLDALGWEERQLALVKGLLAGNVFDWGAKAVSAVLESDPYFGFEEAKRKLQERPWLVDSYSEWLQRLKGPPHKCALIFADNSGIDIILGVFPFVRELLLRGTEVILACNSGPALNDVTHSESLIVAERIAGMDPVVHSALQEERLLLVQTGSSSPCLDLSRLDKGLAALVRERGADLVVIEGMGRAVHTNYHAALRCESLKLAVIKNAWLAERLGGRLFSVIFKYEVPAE

These targets were tested with COc1ccc(Cn2ccc3ccc(C(=O)NO)cc32)cc1 (assay: dose-dependent thermal stabilisation call (2D-TPP, DLPTP, 10% FDR) (binary (1 = stabilised)); higher = stabilised by the compound). Conditions: system: HL-60 intact cells; concentration range 0.04-10 µM.

Row | Target | dose-dependent thermal stabilisation call
1 | OSBPL3 (UniProt Q9H4L5) | inactive: 0
2 | PCNT (UniProt O95613) | inactive: 0
3 | NUP43 (UniProt Q8NFH3) | inactive: 0
4 | PEF1 (UniProt Q9UBV8) | inactive: 0
5 | PDHX (UniProt O00330) | inactive: 0
6 | PEPD (UniProt P12955) | inactive: 0
7 | OTUB1 (UniProt Q96FW1) | inactive: 0
8 | PDE12 (UniProt Q6L8Q7) | inactive: 0
9 | ORC5L (UniProt O43913) | inactive: 0
10 | NSUN6 (UniProt Q8TEA1) | inactive: 0
11 | PDDC1 (UniProt Q8NB37) | inactive: 0
12 | OSBPL1A (UniProt Q9BXW6) | inactive: 0
13 | PET112L (UniProt O75879) | inactive: 0
14 | NRM (UniProt Q8IXM6) | inactive: 0
15 | NUP35 (UniProt Q8NFH5) | inactive: 0
16 | PBRM1 (UniProt Q86U86) | inactive: 0
17 | PCBP1 (UniProt Q15365) | inactive: 0
18 | OGFOD3 (UniProt Q6PK18) | inactive: 0
19 | OAS3 (UniProt Q9Y6K5) | inactive: 0
20 | PEG10 (UniProt Q86TG7) | inactive: 0
21 | PEX16 (UniProt Q9Y5Y5) | inactive: 0
22 | P2RY8 (UniProt Q86VZ1) | inactive: 0
23 | PFDN6 (UniProt O15212) | inactive: 0
24 | PACSIN3 (UniProt Q9UKS6) | inactive: 0
25 | PDHB (UniProt P11177) | inactive: 0
26 | PCMT1 (UniProt P22061) | active: 1
27 | PANK4 (UniProt Q9NVE7) | inactive: 0
